The other results are listed elsewhere or left out.
Experiments:
Assay in all cases: log2 fold change, soluble protein after heating vs DMSO (PISA); higher = thermal stabilisation; K562 cells, 10 uM, 30 min; active = over 0.2 and 3.5 SD of the protein, either way, in both replicates (recomputed)
[1] = compound: CC1=C(SC2=C1C(=N[C@H](C3=NN=C(N32)C)CC(=O)N)C4=CC=C(C=C4)Cl)C
Summary of the method: (§1)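 Values are thermal stability changes relative to control samples and are taken from duplicates. They are stated as log2 fold changes. Before quantification by TMTpro 16plex LC-MS/MS with equalised channel sums, K562 cells at 2×10^6 cells/mL were treated with 10 μM compound for 30 min, heated in aliquots for 3 min across 48°C-58°C, pooled, extracted in PBS with 0.5% NP-40 at 4°C, and centrifuged at 21,000xg for 90 min to give the soluble supernatant.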

Protein sequences, listed by entry. Tags and fused reporters are not part of them. Lines headed by an entry give the natural chain unless they say otherwise; changes in a name come on top.
UniProt Q8TBZ3: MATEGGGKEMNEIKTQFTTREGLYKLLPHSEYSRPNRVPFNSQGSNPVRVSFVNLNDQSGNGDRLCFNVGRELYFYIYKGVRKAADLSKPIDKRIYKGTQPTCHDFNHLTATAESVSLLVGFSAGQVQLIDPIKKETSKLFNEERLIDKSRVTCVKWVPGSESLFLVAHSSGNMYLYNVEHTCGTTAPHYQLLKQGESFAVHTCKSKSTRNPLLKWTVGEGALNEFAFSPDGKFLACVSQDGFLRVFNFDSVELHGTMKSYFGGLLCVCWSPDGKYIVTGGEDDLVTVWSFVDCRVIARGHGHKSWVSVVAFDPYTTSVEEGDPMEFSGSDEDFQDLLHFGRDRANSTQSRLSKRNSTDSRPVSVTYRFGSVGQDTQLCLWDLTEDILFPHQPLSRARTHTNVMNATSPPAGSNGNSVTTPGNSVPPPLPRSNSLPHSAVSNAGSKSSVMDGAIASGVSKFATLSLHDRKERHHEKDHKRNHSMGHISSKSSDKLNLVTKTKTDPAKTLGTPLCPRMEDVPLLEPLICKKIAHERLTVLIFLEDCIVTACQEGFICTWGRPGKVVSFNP
UniProt Q3ZAQ7: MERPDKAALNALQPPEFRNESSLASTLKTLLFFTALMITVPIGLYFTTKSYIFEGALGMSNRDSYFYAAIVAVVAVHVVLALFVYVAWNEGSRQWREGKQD
UniProt Q14135: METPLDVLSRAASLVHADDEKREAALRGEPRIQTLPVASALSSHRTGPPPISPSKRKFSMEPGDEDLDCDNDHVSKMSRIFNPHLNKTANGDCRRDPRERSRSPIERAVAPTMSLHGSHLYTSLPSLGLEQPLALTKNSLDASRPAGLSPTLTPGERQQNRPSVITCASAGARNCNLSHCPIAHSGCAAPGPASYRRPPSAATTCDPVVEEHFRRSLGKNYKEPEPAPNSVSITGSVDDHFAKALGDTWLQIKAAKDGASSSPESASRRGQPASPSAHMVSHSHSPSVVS
UniProt Q96RL7: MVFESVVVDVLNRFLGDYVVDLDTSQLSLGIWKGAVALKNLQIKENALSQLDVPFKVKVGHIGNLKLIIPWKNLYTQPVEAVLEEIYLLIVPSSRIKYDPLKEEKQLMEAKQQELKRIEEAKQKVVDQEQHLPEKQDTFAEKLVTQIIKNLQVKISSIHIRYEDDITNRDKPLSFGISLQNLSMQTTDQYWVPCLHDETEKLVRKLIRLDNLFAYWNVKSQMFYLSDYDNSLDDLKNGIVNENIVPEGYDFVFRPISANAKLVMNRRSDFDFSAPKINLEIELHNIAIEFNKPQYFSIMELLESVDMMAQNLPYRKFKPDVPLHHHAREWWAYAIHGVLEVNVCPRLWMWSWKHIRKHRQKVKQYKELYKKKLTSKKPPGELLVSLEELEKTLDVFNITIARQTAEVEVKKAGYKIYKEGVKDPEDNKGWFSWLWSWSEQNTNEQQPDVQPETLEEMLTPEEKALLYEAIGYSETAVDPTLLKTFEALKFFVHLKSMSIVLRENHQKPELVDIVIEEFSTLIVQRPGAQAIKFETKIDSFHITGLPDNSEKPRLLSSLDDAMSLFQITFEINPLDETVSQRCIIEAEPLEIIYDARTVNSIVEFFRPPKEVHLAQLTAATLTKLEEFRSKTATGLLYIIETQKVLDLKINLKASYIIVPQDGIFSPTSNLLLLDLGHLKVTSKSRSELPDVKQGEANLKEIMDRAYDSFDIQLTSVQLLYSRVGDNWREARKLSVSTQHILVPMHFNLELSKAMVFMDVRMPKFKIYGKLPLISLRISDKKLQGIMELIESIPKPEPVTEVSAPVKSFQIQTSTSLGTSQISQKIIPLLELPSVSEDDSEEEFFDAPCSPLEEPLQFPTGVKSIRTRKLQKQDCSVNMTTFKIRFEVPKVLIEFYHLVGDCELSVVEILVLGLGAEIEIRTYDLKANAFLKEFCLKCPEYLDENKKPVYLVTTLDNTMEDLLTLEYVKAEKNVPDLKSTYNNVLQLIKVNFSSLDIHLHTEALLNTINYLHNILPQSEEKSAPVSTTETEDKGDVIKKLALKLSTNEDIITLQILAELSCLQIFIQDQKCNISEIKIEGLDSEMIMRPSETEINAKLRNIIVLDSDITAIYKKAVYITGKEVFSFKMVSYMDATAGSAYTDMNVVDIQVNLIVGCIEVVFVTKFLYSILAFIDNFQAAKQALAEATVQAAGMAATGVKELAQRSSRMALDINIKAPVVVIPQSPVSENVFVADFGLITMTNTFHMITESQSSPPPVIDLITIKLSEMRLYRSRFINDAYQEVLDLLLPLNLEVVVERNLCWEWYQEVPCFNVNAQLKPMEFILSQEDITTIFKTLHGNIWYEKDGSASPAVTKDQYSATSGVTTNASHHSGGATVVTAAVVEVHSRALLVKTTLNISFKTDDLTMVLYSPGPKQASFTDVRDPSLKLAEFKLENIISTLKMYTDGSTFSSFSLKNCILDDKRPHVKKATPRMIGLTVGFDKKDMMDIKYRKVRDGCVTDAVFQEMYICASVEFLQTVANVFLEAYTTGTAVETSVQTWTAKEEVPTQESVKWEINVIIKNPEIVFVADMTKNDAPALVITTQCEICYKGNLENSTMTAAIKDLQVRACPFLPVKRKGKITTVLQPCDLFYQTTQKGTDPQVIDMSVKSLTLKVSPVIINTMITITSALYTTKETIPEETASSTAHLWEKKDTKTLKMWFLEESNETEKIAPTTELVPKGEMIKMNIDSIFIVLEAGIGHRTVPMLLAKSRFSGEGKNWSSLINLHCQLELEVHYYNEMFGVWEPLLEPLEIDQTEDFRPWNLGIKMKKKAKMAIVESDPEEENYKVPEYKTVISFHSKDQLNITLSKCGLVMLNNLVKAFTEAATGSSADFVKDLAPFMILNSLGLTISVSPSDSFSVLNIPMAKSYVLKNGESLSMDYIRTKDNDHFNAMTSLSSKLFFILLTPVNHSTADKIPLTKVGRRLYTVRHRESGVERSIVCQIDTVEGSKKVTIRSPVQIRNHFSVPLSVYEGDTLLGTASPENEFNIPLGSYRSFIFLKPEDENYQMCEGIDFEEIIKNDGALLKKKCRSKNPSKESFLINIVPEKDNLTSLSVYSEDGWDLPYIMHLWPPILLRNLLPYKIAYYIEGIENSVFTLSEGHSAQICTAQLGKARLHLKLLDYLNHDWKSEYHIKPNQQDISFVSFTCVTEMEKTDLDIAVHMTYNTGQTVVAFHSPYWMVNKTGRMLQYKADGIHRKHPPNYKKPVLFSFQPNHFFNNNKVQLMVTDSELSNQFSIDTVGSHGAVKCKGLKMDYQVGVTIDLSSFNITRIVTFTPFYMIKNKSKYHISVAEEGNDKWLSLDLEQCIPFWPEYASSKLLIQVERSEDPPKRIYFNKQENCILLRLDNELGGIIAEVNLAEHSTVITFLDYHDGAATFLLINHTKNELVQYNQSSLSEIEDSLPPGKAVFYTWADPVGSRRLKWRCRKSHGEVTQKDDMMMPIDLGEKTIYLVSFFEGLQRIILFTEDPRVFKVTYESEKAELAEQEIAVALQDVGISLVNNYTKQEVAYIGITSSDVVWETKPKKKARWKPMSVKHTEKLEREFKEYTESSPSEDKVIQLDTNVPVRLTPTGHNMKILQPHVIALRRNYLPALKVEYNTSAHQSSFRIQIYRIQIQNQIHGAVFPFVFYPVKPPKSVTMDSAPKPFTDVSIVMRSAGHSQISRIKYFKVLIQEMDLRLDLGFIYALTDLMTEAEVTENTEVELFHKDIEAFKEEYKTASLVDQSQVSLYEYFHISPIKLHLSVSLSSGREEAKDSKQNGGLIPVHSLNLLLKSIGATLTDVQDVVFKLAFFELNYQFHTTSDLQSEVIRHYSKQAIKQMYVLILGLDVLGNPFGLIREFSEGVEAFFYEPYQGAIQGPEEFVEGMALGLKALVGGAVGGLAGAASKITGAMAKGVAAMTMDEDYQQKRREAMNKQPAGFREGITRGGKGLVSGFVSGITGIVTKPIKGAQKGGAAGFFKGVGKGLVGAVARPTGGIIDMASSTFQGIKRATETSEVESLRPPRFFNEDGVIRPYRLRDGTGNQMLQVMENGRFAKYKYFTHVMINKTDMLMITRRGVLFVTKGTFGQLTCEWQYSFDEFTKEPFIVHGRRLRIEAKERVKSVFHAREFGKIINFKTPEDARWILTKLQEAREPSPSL
UniProt Q96S15: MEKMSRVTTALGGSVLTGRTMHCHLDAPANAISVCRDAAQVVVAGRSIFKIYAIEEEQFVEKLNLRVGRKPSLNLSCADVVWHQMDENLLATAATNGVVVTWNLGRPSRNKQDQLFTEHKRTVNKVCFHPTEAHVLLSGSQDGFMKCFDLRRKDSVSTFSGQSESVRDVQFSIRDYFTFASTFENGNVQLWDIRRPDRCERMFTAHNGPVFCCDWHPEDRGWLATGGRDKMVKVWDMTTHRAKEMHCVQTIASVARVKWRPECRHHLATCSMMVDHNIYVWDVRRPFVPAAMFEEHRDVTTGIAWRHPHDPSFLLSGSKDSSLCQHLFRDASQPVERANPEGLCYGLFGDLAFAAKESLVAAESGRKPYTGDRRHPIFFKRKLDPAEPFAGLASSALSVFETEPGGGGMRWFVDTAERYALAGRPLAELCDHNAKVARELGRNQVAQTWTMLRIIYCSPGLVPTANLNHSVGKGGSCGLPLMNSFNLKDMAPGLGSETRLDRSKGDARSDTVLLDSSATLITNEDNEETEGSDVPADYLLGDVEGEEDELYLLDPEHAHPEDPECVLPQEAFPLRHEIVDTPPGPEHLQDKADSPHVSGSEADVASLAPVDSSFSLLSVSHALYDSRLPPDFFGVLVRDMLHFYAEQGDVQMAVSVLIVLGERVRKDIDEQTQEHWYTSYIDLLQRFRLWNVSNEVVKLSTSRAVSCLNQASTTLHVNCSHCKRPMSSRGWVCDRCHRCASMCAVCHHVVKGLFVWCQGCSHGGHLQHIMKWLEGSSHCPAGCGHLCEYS
UniProt Q9P1Q0: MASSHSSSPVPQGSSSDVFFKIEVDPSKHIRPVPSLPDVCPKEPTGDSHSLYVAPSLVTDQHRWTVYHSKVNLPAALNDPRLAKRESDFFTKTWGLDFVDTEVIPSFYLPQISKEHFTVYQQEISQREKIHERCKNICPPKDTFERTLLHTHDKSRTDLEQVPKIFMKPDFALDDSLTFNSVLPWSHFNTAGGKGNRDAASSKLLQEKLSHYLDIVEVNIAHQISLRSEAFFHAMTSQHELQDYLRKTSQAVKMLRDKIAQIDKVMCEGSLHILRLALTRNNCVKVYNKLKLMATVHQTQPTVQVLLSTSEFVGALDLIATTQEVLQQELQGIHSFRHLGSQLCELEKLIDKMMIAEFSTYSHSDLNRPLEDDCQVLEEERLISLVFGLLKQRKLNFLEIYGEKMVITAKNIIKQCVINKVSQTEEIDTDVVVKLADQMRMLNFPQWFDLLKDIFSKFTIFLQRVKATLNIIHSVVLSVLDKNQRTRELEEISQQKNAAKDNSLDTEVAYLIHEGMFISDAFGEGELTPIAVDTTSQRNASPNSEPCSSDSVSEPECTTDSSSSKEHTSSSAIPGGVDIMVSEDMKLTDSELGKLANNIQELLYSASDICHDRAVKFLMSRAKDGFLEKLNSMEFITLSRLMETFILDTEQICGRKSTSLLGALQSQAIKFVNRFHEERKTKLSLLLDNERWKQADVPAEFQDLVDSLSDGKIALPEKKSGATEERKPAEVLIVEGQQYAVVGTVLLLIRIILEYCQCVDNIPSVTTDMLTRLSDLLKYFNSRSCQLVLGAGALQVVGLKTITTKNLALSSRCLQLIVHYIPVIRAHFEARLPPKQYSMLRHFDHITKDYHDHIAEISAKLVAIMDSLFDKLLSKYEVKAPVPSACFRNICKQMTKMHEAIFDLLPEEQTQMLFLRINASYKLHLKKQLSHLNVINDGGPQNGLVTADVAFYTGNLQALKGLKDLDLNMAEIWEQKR
UniProt Q8TAF3: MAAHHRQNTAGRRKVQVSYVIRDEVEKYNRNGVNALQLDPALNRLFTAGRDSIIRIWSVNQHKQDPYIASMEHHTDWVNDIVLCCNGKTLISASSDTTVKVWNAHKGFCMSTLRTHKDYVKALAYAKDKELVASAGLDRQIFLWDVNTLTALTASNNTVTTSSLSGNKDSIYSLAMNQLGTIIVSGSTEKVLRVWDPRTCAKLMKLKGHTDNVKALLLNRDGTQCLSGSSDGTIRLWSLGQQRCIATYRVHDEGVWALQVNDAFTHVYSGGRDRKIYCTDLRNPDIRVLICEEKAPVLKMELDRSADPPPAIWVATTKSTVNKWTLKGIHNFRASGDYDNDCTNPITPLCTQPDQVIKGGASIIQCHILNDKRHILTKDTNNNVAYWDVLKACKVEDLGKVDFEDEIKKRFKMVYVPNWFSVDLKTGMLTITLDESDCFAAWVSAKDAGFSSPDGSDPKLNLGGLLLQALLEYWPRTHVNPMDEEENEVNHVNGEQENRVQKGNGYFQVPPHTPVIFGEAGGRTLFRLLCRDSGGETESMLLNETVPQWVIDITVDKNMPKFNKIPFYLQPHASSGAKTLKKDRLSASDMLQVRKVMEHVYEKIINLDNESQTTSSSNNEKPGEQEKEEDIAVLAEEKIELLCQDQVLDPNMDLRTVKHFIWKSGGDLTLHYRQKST

[2] = compound: c1ccc([C@@H]2C[C@H]2NC2CCNCC2)cc1
Summary of the method: as §1

[3] = compound: C1=CC=C(C=C1)[C@H](COC2=CC3=C(C=C2)NC(=O)N3)NC(=O)C4=CC=CN(C4=O)CC5=CC(=C(C=C5)F)F
Summary of the method: as §1

[4] = compound: CC1=C2C(=CC=C1)N=C(N(C2=O)C3=CC=CC=C3C)CN4C=NC5=C(N=CN=C54)N
Summary of the method: as §1

[5] = compound: Cc1sc2c(c1C)C(c1ccc(Cl)cc1)=N[C@@H](CC(=O)OC(C)(C)C)c1nnc(C)n1-2
Summary of the method: as §1

Measured: log2 fold change

VHL (UniProt P40337)
inactive: [1] 0.006 | [2] 0.031

WDR20 isoform 7 (UniProt Q8TBZ3)
inactive: [3] 0.166 | [1] 0.004 | [4] -0.014 | [5] 0.006 | [2] -0.003

VMA21 (UniProt Q3ZAQ7)
inactive: [3] 0.063 | [1] 0.005 | [4] 0.031 | [2] 0.008

VDAC3 (UniProt Q9Y277)
inactive: [3] 0.036 | [1] 0.026 | [4] 0.097 | [5] -0.034 | [2] -0.014

WDR45B (UniProt Q5MNZ6)
inactive: [3] 0.019 | [1] 0.087 | [4] 0.015 | [5] -0.072 | [2] 0.023

VSIR (UniProt Q9H7M9)
inactive: [3] 0.071 | [1] -0.054 | [4] 0.011 | [2] 0.056

WWOX (UniProt Q9NZC7)
inactive: [1] -0.064 | [5] 0.566 | [2] -0.09

WARS1 (UniProt G3V277)
inactive: [3] -0.075 | [4] 0.283 | [5] 0.076

VEGFA (UniProt H0YBI8)
inactive: [3] 0.039 | [4] 0.051 | [5] -0.13

VGLL4 isoform 4 (UniProt Q14135)
inactive: [3] -0.089 | [4] 0.116 | [5] 0.156

WDR77 (UniProt Q9BQA1)
inactive: [3] -0.017 | [1] 0.009 | [4] 0.055 | [5] -0.008 | [2] -0.026

VPS13A isoform 4 (UniProt Q96RL7)
inactive: [5] -0.077

WDR24 (UniProt Q96S15)
inactive: [1] 0.101 | [5] 0.061 | [2] -0.127

VIM (UniProt P08670)
inactive: [3] 0.251 | [1] -0.232 | [4] -0.192 | [5] 0.07 | [2] 0.071

VPS37B (UniProt Q9H9H4)
inactive: [3] -0.082 | [4] 0.045 | [5] 0.011

WIPI2 isoform 6 (UniProt Q9Y4P8)
inactive: [3] -0.159 | [1] 0.199 | [2] -0.005

Taken from the listing (11 entries):
WDR45B (UniProt Q5MNZ6)
inactive: [3] 0.019 | [1] 0.087 | [4] 0.015 | [5] -0.072 | [2] 0.023

VSIR (UniProt Q9H7M9)
inactive: [3] 0.071 | [1] -0.054 | [4] 0.011 | [2] 0.056

WWOX (UniProt Q9NZC7)
inactive: [1] -0.064 | [5] 0.566 | [2] -0.09

WARS1 (UniProt G3V277)
inactive: [3] -0.075 | [4] 0.283 | [5] 0.076

VEGFA (UniProt H0YBI8)
inactive: [3] 0.039 | [4] 0.051 | [5] -0.13

VGLL4 isoform 4 (UniProt Q14135)
inactive: [3] -0.089 | [4] 0.116 | [5] 0.156

WDR77 (UniProt Q9BQA1)
inactive: [3] -0.017 | [1] 0.009 | [4] 0.055 | [5] -0.008 | [2] -0.026

VPS13A isoform 4 (UniProt Q96RL7)
inactive: [5] -0.077

WDR24 (UniProt Q96S15)
inactive: [1] 0.101 | [5] 0.061 | [2] -0.127

VIM (UniProt P08670)
inactive: [3] 0.251 | [1] -0.232 | [4] -0.192 | [5] 0.07 | [2] 0.071

VPS37B (UniProt Q9H9H4)
inactive: [3] -0.082 | [4] 0.045 | [5] 0.011

Next part

VIRMA (UniProt Q69YN4)
inactive: [3] -0.107 | [1] 0.038 | [2] 0.039

VPS35, A0A1W2PP10
inactive: [3] -0.043 | [4] 0.106 | [5] 0.097

WDR33 (UniProt Q9C0J8)
inactive: [3] 0.083 | [1] -0.101 | [4] 0.167 | [5] 0.097 | [2] -0.036

WDR46, A0A0G2JJL1
inactive: [3] 0.129 | [4] -0.546 | [5] 0.303

WDR81 (UniProt Q562E7)
inactive: [3] -0.132 | [5] 0.122

VLDLR (UniProt P98155)
inactive: [5] 0.019

VMA21 isoform 2 (UniProt Q3ZAQ7)
inactive: [3] 0.001 | [1] -0.106 | [5] 0.013 | [2] 0

VDAC1 (UniProt C9JI87)
inactive: [3] -0.132 | [1] -0.004 | [2] 0.137

VPS54 (UniProt Q9P1Q0)
inactive: [4] 0.081 | [5] -0.086

WDR36 (UniProt Q8NI36)
inactive: [3] 0.033 | [1] -0.101 | [4] -0.092 | [5] 0.071 | [2] 0

VPS13A (UniProt Q96RL7)
inactive: [3] -0.001 | [1] 0.036 | [4] 0.007 | [5] -0.045 | [2] -0.002

WTAP (UniProt Q15007)
inactive: [4] 0.002

VEZF1 (UniProt Q14119)
inactive: [3] 0.088 | [1] -0.218 | [4] 0.005 | [2] 0.245

VPS13B (UniProt Q7Z7G8)
inactive: [3] 0 | [1] -0.008 | [4] 0.068 | [5] -0.057 | [2] 0.031

WNK4 (UniProt Q96J92)
inactive: [4] 0 | [5] -0.089

WDFY2 (UniProt Q96P53)
inactive: [4] -0.088 | [5] 0.101

VEZT (UniProt Q9HBM0)
inactive: [3] -0.049 | [1] -0.15 | [4] 0.189 | [5] 0.076 | [2] 0.184

WDR34 (UniProt Q96EX3)
inactive: [3] -0.039 | [1] 0.162 | [4] 0.042 | [2] 0.109

VPS4B (UniProt O75351)
inactive: [3] -0.051 | [1] 0.054 | [4] 0.09 | [5] 0.007 | [2] -0.004

WIPI1 (UniProt Q5MNZ9)
inactive: [3] 0.036 | [1] 0.038 | [5] -0.034 | [2] 0.07

VCPKMT (UniProt Q9H867)
inactive: [5] 0.036

WDR48 (UniProt Q8TAF3)
inactive: [3] 0.025 | [1] 0.009 | [4] 0.009 | [5] -0.018 | [2] -0.001

VCPIP1 (UniProt Q96JH7)
inactive: [4] -0.012

From the supplement of paper PMC10849652
